The results in this text go back to publication PMC3798266.

Amino acid sequences for entries named in this document (tags omitted).
UniProt P00359: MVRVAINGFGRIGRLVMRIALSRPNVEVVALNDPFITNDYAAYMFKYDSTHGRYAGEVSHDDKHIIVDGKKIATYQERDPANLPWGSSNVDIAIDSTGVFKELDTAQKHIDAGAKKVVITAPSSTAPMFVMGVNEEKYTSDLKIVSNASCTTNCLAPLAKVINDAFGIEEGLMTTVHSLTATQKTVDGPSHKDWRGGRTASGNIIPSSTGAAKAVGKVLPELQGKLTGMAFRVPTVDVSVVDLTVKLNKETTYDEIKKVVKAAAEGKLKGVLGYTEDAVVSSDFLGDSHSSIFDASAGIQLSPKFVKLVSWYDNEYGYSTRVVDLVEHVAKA
UniProt P06700: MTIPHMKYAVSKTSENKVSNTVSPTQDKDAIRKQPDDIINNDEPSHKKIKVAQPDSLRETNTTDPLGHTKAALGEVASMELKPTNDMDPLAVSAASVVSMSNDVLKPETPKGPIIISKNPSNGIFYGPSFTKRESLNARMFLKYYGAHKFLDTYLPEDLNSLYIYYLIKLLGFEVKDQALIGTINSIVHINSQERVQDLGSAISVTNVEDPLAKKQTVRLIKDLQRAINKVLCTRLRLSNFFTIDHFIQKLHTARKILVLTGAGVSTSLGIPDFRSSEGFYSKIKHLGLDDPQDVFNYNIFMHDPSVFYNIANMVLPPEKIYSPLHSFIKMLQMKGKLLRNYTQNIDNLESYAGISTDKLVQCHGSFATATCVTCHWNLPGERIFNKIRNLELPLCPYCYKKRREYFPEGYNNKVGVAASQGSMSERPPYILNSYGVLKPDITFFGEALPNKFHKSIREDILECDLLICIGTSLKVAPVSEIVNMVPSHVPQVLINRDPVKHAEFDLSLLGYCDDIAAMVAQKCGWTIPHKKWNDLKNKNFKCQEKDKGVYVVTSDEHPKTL

No constants are given. Whether binding was seen depends on the method and setting. For some assays here: Binding seen in cells or lysates may run through a third protein. Some binding calls cover weakened binding; strength is not graded here.

In test [1] the target is Tdh3-myc fusion protein (budding yeast) (UniProt P00359). Kind of test: co-IP; Tdh3-myc precipitated from yeast cell lysate (lysis buffer with 1.5% Triton X-100) with anti-Myc agarose conjugate, overnight at 4°C, washed with PBS; western blot with an antibody to Sir2; control lysate from a strain lacking the myc tag.
Test [2] concerns the target Tdh3-BD (Tdh3 fused to the DNA binding domain of Gal4) (budding yeast) (UniProt P00359). Description: two-hybrid; Tdh3 as Gal4 DNA-binding-domain fusion, Sir2 as Gal4 activation-domain fusion; HIS3 reporter, growth on -HIS media; strain YSH625 lacking the endogenous SIR2, SIR3 and SIR4 genes.

Sir2 (from UniProt P06700 1-562): the binding result in test [1] is given as “binds”.
As to “Sir2-AD (Sir2 fused to the transcriptional activation domain of Gal4) (from UniProt P06700 1-562)”, the binding result in test [2] was “binds”.
